No constants are given. Whether binding was seen depends on the method and setting. Binding seen in cells or lysates may run through a third protein. A yes stands for co-enrichment or nearness to the bait. Other partners may have been found.
Biological target: RNF43-BirA*-HA (human) (UniProt Q68DV7)
Assay: proximity labelling; BioID: T-REx-293 cells stably expressing inducible RNF43-BirA*-HA, treated o/n with tetracycline and biotin; streptavidin pull-down, LC-MS/MS; non-induced cells as negative control

Chains of the proteins cited; added tags and fusions are not shown. Residues count along the entry.
UniProt Q68DV7, residues 24-783: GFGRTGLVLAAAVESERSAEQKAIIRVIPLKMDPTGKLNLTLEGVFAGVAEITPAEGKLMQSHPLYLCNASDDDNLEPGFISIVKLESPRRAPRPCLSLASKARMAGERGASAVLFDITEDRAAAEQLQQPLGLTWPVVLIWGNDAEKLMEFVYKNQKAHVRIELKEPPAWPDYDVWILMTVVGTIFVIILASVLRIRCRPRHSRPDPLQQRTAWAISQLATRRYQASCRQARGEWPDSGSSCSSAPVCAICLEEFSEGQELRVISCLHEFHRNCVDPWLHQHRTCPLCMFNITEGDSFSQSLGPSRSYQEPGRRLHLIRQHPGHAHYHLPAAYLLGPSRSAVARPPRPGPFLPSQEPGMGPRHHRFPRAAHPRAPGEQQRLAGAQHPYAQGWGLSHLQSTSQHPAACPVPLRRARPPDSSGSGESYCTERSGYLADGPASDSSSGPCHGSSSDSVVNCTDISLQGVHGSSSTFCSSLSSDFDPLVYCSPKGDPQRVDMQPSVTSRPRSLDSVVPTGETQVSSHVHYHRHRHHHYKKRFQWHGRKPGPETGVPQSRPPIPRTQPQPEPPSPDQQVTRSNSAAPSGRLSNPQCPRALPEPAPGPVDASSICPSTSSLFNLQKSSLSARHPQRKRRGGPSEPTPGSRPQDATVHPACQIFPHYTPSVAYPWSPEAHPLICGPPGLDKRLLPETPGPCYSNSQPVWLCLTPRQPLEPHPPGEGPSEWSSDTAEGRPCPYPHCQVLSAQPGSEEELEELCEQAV
UniProt O15169: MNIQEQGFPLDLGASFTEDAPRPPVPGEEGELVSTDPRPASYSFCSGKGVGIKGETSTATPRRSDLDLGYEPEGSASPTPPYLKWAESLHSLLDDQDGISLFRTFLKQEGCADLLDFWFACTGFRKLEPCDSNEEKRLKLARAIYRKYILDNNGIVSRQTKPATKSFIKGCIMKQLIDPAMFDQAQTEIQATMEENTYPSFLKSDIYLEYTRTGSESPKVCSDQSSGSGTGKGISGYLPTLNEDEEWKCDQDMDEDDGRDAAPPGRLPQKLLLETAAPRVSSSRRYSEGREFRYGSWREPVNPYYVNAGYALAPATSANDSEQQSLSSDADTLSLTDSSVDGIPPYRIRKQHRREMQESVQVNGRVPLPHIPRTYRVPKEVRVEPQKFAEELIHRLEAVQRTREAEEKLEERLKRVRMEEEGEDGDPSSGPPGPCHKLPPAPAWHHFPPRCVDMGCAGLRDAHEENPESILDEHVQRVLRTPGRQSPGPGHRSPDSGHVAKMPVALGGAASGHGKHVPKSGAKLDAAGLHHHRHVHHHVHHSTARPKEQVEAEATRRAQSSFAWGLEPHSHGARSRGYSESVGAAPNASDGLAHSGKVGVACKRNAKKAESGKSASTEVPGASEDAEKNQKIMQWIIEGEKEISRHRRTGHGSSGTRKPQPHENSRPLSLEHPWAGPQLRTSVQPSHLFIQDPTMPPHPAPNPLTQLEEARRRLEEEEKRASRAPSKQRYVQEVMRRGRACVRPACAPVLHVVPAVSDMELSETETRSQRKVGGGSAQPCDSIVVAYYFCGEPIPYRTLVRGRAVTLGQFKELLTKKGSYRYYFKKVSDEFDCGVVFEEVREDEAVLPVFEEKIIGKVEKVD
UniProt P49674: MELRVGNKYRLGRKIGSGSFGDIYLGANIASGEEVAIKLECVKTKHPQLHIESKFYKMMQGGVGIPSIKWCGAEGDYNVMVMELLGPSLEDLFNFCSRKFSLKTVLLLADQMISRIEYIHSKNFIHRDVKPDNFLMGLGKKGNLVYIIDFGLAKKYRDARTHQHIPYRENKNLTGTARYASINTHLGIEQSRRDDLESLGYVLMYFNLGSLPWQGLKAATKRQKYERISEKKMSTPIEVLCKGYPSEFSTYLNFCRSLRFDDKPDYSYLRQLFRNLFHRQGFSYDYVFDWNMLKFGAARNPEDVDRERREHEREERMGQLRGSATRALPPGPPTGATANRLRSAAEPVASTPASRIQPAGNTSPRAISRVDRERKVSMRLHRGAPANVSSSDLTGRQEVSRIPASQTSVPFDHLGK

Substance	binding
Axin1 (endogenous) (from UniProt O15169 1-862)	binds
Casein kinase 1 epsilon (endogenous) (from UniProt P49674 1-416) (enzyme)	binds
